From PubChem BioAssay AID330 (DTP/NCI, 2004)
The list does not hold the whole screen: it gathers tests that were run many times, whatever their T/C, doses with no T/C, and many T/C values between a quarter and a half above the control. Other doses and runs of a compound stand elsewhere. T/C gives the treated animals as a percentage of the vehicle group. Some doses have a count of surviving animals in place of a T/C: the source holds a T/C of zero for them, seemingly a mark for toxic or unscored doses. Some survivor counts are full or nearly so, which does not show that the dose was tolerated: survival well below the control is almost never listed, so the zero probably covers shortened survival too. Counts of survivors are from the toxicity check (mostly the fifth day) where no day follows; animals may have died later. Schedules are NCI's codes, read here as Q, the interval in days (D) or hours (H), X, the number of doses. Some entries hold several experiments; their values stand side by side, smallest first. Where survival is the endpoint, the PubChem record calls one and a half times the control and up active, and a quarter to a half above the control has no call in these data; cut-offs in other NCI protocols can differ.

System: P388 leukemia ip, CD2F1 mice, survival T/C
Assay: NCI In Vivo Anticancer Drug Screen. Data for tumor model P388 Leukemia (intraperitoneal) in CD2F1 (CDF1) mice
Details: T/C endpoint: median survival time, higher T/C = longer survival
[1] = dose: 50.0 mg/kg/injection, schedule: Q01DX005 (ip), vehicle: Klucel (hydroxypropylcellulose) (HPC)
[2] = dose: 100.0 mg/kg/injection, schedule: Q01DX005 (ip), vehicle: Klucel (hydroxypropylcellulose) (HPC)
[3] = dose: 200.0 mg/kg/injection, schedule: Q01DX005 (ip), vehicle: Klucel (hydroxypropylcellulose) (HPC)

Compound: NC(=S)c1cccc(C=Nc2ccccc2)n1
- survivor count (dose: 50.0 mg/kg/injection, schedule: Q04DX003 (ip), vehicle: Klucel (hydroxypropylcellulose) (HPC)): 6 of 6
- survivor count (dose: 200.0 mg/kg/injection, schedule: Q04DX003 (ip), vehicle: Klucel (hydroxypropylcellulose) (HPC)): 6 of 6

Compound: N#Cc1ccc(NN=NCCCl)cc1
- T/C (dose: 25.0 mg/kg/injection, schedule: Q01DX009 (ip), vehicle: distilled water + Tween-80): 131 % of control
- T/C (dose: 50.0 mg/kg/injection, schedule: Q01DX009 (ip), vehicle: distilled water + Tween-80): 142 % of control
- survivor count (dose: 200.0 mg/kg/injection, schedule: Q01DX009 (ip), vehicle: distilled water + Tween-80): 0 of 5
- survivor count (dose: 200.0 mg/kg/injection, schedule: Q01DX009 (ip), vehicle: distilled water + alcohol): 3 of 6

Compound: C=CC(=O)N/C(N)=N\C(N)=O
- survivor count (dose: 25.0 mg/kg/injection, schedule: Q01DX005 (ip), vehicle: saline): 2 of 6
- survivor count (dose: 50.0 mg/kg/injection, schedule: Q01DX005 (ip), vehicle: saline): 0 of 6
- survivor count (dose: 100.0 mg/kg/injection, schedule: Q01DX005 (ip), vehicle: saline): 0 of 6
- survivor count (dose: 200.0 mg/kg/injection, schedule: Q01DX005 (ip), vehicle: saline): 0 of 6

Compound: O=c1[nH]cc([N+](=O)[O-])cc1Cl
- survivor count (dose: 200.0 mg/kg/injection, schedule: Q01DX005 (ip), vehicle: saline with Tween-80): 2 of 6

Compound: CC[C@@]1(O)C[C@H](OC2CC(N(C)C)C(OC3CC(O)C(OC4CC(O)C(O)C(C)O4)C(C)O3)C(C)O2)c2c(cc3c(c2O)C(=O)c2c(O)ccc(O)c2C3=O)[C@H]1C(=O)OC (some centres undefined)
- T/C (dose: 0.67 mg/kg/injection, schedule: Q04DX003 (ip), vehicle: water): 138 % of control
- T/C (dose: 1.0 mg/kg/injection, schedule: Q04DX003 (ip), vehicle: water): 148 % of control
- survivor count (dose: 15.0 mg/kg/injection, schedule: Q01DX001 (ip), vehicle: other): 2 of 6

Compound: COC(=O)C1=C2Nc3ccccc3C23CCN2C(O)C4(CC5CC67CCOC6CCN6CCC8(c9cccc(OC)c9N(C4)C58O)C67)C4OCCC4(C1)C23 (centres undefined)
- survivor count [1]: 5 of 5
- survivor count [2]: 5 of 5
- survivor count [3]: 5 of 5

Compound: C#CC[N+]12CN3CN(CN(C3)C1)C2
- T/C (dose: 200.0 mg/kg/injection, schedule: Q01DX009 (ip), vehicle: saline): 126 % of control

Compound: CC1(c2cccc(N(CCCl)CCCl)c2)NC(=O)NC1=O (centres undefined)
- survivor count (dose: 100.0 mg/kg/injection, schedule: Q01DX009 (ip), vehicle: saline with Tween-80): 5 of 6
- survivor count (dose: 200.0 mg/kg/injection, schedule: Q01DX009 (ip), vehicle: saline with Tween-80): 2 of 6

Compound: COC(=O)[C@H]1[C@H]2C[C@@H]3c4[nH]c5cc(OC)ccc5c4CCN3C[C@H]2C[C@@H](OC(=O)c2cccc(N(C)C)c2)[C@@H]1OC
- survivor count [1]: 6 of 6
- survivor count [3]: 3 of 6

Compound: COc1cc(C)nc2ccc(Cc3ccc4nc(C)cc(OC)c4c3)cc12
- survivor count (dose: 100.0 mg/kg/injection, schedule: Q04DX003 (ip), vehicle: saline with Tween-80): 0 of 6 and 1 of 6
- survivor count (dose: 200.0 mg/kg/injection, schedule: Q04DX003 (ip), vehicle: saline with Tween-80): 0 of 6
- survivor count (dose: 400.0 mg/kg/injection, schedule: Q04DX003 (ip), vehicle: saline with Tween-80): 0 of 6

Compound: CC1CCC(C(C)(C)c2ccccc2)CC1OC(=O)/C=C/CC(C)(C)CC=C1C2CCC1N(C(=O)OCC(Cl)(Cl)Cl)N2C(=O)OCC(Cl)(Cl)Cl (centres undefined)
- survivor count [2]: 6 of 6

Compound: COc1cc2c3c4c(ccc3c1OC)CCCN4CC2
- survivor count (dose: 200.0 mg/kg/injection, schedule: Q01DX005 (ip), vehicle: Klucel + Tween-80): 0 of 6

Compound: C(=Nc1ccc2c(c1)Cc1ccccc1-2)c1ccc2ccccc2c1
- survivor count (dose: 100.0 mg/kg/injection, schedule: Q04DX002 (ip), vehicle: saline): 6 of 6
- survivor count (dose: 200.0 mg/kg/injection, schedule: Q04DX002 (ip), vehicle: saline): 6 of 6
